Reference: patent US20090220503A1, “METHOD FOR TREATING CANCERS WITH INCREASED RAS SIGNALING” (THE TRUSTEES OF BOSTON UNIVERSITY, priority 2006, published 2009)
At least one structure is not confirmed: it was looked up by name or label, or the drawing left a doubt.

Tested on: PKCδ
Assay: Immunoblot analysis of PKCδ protein levels
Type: cell-based
Settings: KBalb and NIH/3T3-Ras cells, 48 h
Procedure: Cell Culture and Treatment. NIH/3T3 and Balb cell lines were obtained from ATCC (American Type Culture Collection, Rockville, Md.). NIH/3T3-Ras cells were produced by stable transfection of v-Harvey ras, and selected and maintained in 0.5 mg/ml of Geneticin (Gibco BRL, Gaithersburg, Md.). Ki-v-ras-Balb (KBalb) cells were produced by stable infection of Balb with retroviral vector stocks containing v-Kirsten ras, and were selected and maintained with Geneticin. The human pancreatic tumor lines Hs 766s, BxPC-3 and MIA PaCa-2, were obtained from ATCC. All cell lines were maintained in Dulbecco Modified Eagle medium (DMEM) (Gibco BRL) supplemented with 2 mM 1-glutamine, 100 U/ml of penicillin, and 100 μg/ml of streptomycin (Gibco BRL). Media was additionally supplemented with 10% DCS (NIH/3T3, NIH/3T3-Ha-v-Ras, Balb/3T3, Ki-v-ras-Balb, and Balb-myc), or 10% FBS (BxPC-3, MIA PaCa-2). Cells were cultured at 37° C. and 5% CO2. Cell Proliferation Assay. Cell proliferation was assessed using an MTT [3-(4,5-dimethylthiazol-2-yl)-2,5-diphenyltetrazolium bromide] assay (Roche, Mannheim, Germany). […] The optical densities were quantified at a test wavelength of 550 nm and a reference wavelength of 630 nm on a multiwell spectrophotometer. siRNA Knockdown of PKCδ. siRNA duplexes (siRNAs) were obtained from Qiagen (Valencia, Calif.). […]

`O=c1cc(N2CCOCC2)oc2c(-c3ccccc3)cccc12` [LY294002] was tested. Which “PKCδ protein levels after p21Ras or PI3K inhibition” value did it give?
The value was “PKCδ protein levels fell”.
